The results in this text go back to article PMC7759526.

By UniProt entry, the sequences of proteins in these tests, tags left out.
UniProt Q13950: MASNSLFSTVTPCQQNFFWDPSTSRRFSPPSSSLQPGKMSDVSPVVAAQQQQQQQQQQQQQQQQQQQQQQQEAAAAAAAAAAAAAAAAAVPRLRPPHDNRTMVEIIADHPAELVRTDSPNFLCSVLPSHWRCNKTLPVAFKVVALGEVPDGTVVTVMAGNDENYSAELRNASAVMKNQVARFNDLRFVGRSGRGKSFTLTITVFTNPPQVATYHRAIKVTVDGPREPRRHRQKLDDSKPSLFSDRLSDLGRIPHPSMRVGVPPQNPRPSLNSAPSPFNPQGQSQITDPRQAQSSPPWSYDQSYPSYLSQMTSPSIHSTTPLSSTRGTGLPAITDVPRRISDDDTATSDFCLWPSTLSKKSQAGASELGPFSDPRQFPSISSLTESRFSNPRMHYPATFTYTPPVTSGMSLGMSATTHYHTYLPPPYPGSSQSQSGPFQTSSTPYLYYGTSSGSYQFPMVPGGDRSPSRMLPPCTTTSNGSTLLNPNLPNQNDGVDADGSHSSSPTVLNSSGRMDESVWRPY
UniProt Q9UM07: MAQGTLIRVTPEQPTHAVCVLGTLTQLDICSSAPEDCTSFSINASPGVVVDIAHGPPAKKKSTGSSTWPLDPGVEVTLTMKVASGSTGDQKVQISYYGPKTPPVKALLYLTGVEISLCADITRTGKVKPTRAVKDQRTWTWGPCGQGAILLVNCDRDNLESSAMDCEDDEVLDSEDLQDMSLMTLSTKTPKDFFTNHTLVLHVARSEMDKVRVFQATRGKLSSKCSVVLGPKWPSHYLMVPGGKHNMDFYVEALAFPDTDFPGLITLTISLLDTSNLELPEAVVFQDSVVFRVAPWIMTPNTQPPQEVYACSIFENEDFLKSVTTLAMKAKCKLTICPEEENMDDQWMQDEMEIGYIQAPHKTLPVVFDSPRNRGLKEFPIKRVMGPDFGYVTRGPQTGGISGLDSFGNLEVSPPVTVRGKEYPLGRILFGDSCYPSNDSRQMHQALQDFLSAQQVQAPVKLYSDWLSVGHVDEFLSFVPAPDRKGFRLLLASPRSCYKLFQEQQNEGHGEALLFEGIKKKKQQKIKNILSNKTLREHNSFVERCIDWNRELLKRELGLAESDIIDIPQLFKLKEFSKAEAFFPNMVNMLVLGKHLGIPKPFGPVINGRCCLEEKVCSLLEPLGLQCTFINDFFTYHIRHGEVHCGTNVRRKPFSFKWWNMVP

These are yes or no findings as the source states them, for the method shown. Binding seen in cells or lysates may run through a third protein. Some binding calls cover weakened binding; strength is not graded here.

The target in one experiment is FLAG-RUNX2 (human) (UniProt Q13950). Briefly: co-IP; HEK293T cells co-transfected with HA-PADI4 and FLAG-RUNX2; IP lysis buffer; precipitated with anti-FLAG antibody (normal mouse IgG as control) and protein-G agarose at 4°C, blotted with anti-HA or anti-FLAG.
Experiment [1] concerns the target RUNX2 (endogenous, hFOB 1.19) (human (endogenous in hFOB 1.19)) (UniProt Q13950). Briefly: co-IP; endogenous proteins; whole-cell extracts of hFOB 1.19 cells induced for 3 days; precipitated with anti-RUNX2 antibody (normal mouse IgG as control) and protein-G agarose at 4°C, blotted with anti-PADI4 or anti-RUNX2.

With “HA-PADI4 (peptidyl arginine deiminase 4) (from UniProt Q9UM07 1-663) (enzyme)”, in the experiment with FLAG-RUNX2 (human), the binding result is given as “binds”.

As for “PADI4 (endogenous, hFOB 1.19) (from UniProt Q9UM07 1-663) (enzyme)”, the binding entry in experiment [1] was “binds”.
